From publication PMC10502019 come the findings set out here.

No constants are given. Whether binding was seen depends on the method and setting. Binding seen in cells or lysates may run through a third protein. Some results given as binding are weak or reduced against the parent protein; the word gives no strength.

The target in experiment [1] is T1, Fsd2 (Fibronectin Type III and SPRY Domain Containing 2) (mouse (endogenous in mouse muscle and heart)) (UniProt Q8BZ52).
T1 sequence: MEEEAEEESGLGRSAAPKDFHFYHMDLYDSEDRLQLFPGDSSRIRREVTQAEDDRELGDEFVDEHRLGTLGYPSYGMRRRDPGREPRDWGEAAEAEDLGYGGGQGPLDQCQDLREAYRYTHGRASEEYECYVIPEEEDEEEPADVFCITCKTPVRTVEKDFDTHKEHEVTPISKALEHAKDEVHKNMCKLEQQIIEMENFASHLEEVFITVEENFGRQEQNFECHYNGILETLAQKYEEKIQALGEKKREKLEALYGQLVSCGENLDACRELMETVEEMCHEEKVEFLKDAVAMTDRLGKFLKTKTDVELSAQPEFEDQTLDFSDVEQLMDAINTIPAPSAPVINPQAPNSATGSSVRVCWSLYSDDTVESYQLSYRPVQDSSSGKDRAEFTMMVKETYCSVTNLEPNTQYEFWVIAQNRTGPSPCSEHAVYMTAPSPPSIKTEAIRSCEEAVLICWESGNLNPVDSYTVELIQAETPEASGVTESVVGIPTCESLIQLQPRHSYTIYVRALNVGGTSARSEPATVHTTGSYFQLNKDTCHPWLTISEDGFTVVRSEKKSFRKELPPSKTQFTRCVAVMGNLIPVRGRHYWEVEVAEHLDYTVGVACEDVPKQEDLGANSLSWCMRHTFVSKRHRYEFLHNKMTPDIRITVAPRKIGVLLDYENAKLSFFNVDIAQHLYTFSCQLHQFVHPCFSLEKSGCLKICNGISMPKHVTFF
Put plainly: co-IP; IPs with Fsd2 and Esd antibodies; western blotting of the immunoprecipitates. (In general: Immunoblotting shows a protein as a band on a membrane.)

Experiment [2] addresses T2, Esd (Esterase D, a serine hydrolase) (mouse (endogenous in mouse muscle and heart)) (UniProt Q9R0P3).
T2 sequence: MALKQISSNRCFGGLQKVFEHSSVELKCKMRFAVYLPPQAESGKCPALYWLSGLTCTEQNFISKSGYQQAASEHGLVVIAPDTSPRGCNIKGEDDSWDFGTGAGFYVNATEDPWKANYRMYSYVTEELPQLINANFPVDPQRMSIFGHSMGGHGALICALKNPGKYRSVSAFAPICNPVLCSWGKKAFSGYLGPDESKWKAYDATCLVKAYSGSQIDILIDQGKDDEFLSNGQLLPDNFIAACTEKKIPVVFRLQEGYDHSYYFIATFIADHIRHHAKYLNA
The experiment is described as above.

B1: Esd (Esterase D, a serine hydrolase) (enzyme, UniProt Q9R0P3 1-282)
chain: MALKQISSNRCFGGLQKVFEHSSVELKCKMRFAVYLPPQAESGKCPALYWLSGLTCTEQNFISKSGYQQAASEHGLVVIAPDTSPRGCNIKGEDDSWDFGTGAGFYVNATEDPWKANYRMYSYVTEELPQLINANFPVDPQRMSIFGHSMGGHGALICALKNPGKYRSVSAFAPICNPVLCSWGKKAFSGYLGPDESKWKAYDATCLVKAYSGSQIDILIDQGKDDEFLSNGQLLPDNFIAACTEKKIPVVFRLQEGYDHSYYFIATFIADHIRHHAKYLNA
Turning to B1, the binding entry in experiment [1] was “binds”.

B2: Fsd2 (Fibronectin Type III and SPRY Domain Containing 2) (protein, UniProt Q8BZ52 1-716)
chain: MEEEAEEESGLGRSAAPKDFHFYHMDLYDSEDRLQLFPGDSSRIRREVTQAEDDRELGDEFVDEHRLGTLGYPSYGMRRRDPGREPRDWGEAAEAEDLGYGGGQGPLDQCQDLREAYRYTHGRASEEYECYVIPEEEDEEEPADVFCITCKTPVRTVEKDFDTHKEHEVTPISKALEHAKDEVHKNMCKLEQQIIEMENFASHLEEVFITVEENFGRQEQNFECHYNGILETLAQKYEEKIQALGEKKREKLEALYGQLVSCGENLDACRELMETVEEMCHEEKVEFLKDAVAMTDRLGKFLKTKTDVELSAQPEFEDQTLDFSDVEQLMDAINTIPAPSAPVINPQAPNSATGSSVRVCWSLYSDDTVESYQLSYRPVQDSSSGKDRAEFTMMVKETYCSVTNLEPNTQYEFWVIAQNRTGPSPCSEHAVYMTAPSPPSIKTEAIRSCEEAVLICWESGNLNPVDSYTVELIQAETPEASGVTESVVGIPTCESLIQLQPRHSYTIYVRALNVGGTSARSEPATVHTTGSYFQLNKDTCHPWLTISEDGFTVVRSEKKSFRKELPPSKTQFTRCVAVMGNLIPVRGRHYWEVEVAEHLDYTVGVACEDVPKQEDLGANSLSWCMRHTFVSKRHRYEFLHNKMTPDIRITVAPRKIGVLLDYENAKLSFFNVDIAQHLYTFSCQLHQFVHPCFSLEKSGCLKICNGISMPKHVTFF
Regarding B2, the binding result in experiment [2] is given as “binds”.
